{"source": "patent US20150313898", "key": {"[1]": {"biological_target": "DNA ligase I (hLigI) (Homo sapiens) (UniProt P18858)", "experiment": "EMSA", "details": "dideoxy residue at 3' terminus of nick; ligation buffer, 25 C, 120 min; DNA-protein complex on 12% native gel; L189 or L82 added in some lanes; purified recombinant protein; label: labeled"}, "[2]": {"biological_target": "DNA ligase I (hLigI) (Homo sapiens) (UniProt P18858)", "experiment": "activity assay", "details": "gel-based ligation, 25 C 30 min; inhibited by compounds 67, 82, 189; purified recombinant protein; label: 5'-32P on 18-mer"}, "[3]": {"test_system": "T1, DNA ligase III beta (hLigIIIβ) (Homo sapiens)", "T1 sequence (looked up, limits assumed)": "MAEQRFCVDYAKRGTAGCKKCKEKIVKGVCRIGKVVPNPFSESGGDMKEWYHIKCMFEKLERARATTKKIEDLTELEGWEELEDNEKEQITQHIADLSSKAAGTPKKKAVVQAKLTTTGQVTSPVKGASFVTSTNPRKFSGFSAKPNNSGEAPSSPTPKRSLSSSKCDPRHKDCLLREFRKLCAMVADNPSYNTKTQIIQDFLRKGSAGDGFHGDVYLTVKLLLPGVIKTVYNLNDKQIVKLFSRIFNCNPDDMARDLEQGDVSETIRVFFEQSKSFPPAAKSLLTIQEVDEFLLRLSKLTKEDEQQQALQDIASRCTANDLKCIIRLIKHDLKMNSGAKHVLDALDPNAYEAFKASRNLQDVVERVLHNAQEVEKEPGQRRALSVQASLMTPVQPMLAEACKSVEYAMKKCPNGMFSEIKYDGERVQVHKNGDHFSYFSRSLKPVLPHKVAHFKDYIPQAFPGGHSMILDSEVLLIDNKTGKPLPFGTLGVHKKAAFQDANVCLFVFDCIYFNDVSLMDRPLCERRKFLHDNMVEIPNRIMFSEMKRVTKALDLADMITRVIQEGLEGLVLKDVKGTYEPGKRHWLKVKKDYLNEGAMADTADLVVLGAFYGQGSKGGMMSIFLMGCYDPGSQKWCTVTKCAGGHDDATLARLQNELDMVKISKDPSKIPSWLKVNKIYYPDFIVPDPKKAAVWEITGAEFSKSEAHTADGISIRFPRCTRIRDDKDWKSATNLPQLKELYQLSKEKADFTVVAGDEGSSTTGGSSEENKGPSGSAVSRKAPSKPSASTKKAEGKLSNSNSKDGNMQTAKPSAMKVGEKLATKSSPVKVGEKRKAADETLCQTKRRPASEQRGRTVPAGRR", "experiment": "activity assay", "details": "gel-based ligation, 25 C 30 min; inhibited by compounds 67 and 189; purified recombinant protein; label: 5'-32P on 18-mer"}, "[4]": {"test_system": "DNA ligase IV/XRCC4 complex (hLigIV/XRCC4) (Homo sapiens)", "experiment": "activity assay", "details": "gel-based ligation, 25 C 30 min; inhibited by compound 189; purified recombinant protein; label: 5'-32P on 18-mer"}}, "note": "The exact form of at least one protein or probe is not confirmed. For some of these results: Protein sequences can lack the tags named with them."}
{"sequence": "CGCCAGGGTTTTCCCAGTCACGACC / GTAAAACGACGGCCAGTG [nonligatable nicked linear duplex]", "values": [{"measurement": "binding result", "setting": "[1]", "value": "binds"}]}
{"sequence": "CGCCAGGGTTTTCCCAGTCACGACC / GTAAAACGACGGCCAGTG", "values": [{"measurement": "activity on this sequence", "setting": "[2]", "value": "active"}, {"measurement": "activity on this sequence", "setting": "[3]", "value": "active"}, {"measurement": "activity on this sequence", "setting": "[4]", "value": "active"}]}
